This assay is described as follows: qHTS Assay to Find Inhibitors of Chronic Active B-Cell Receptor Signaling. As to conditions: ABC-DLBCL IkBa-CBG/CBR reporter, luminescence ratio (green luciferase fused to IkBa over red control in TMD8 lymphoma cells), 4 h. The essentials:
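Compounds up to 46 uM were incubated four hours with TMD8 cells whose green CBG68 luciferase is fused to IkappaBalpha; red CBR luminescence normalised the signal, and concentration-effect curves were fitted to fusion, red and ratio data.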
A general note: Quantitative high-throughput screening tests each substance at several concentrations.

[1] abbreviates: measured here: IkBa-CBG green luminescence.
[2] abbreviates: measured here: CBR red luminescence, cell number.

Each structure is given as a SMILES string. Several values for one entry are separate records, joined by “and”; a condition that tells them apart may be missing. Equal entries are not always repeated. The list shows a part of the results. Shown are side measurements of this screen, not its main read-out; they come without a call. The list favours compounds with an active or inconclusive main result. Words in brackets tell the shape of the fitted curve; partial curves, single points and poor fits give uncertain potencies.

Broadly, the AC50 is the concentration giving half of the maximal activity seen. For the compound `CC(=O)Cc1nsc(NC(=O)c2cc(-c3ccccc3Cl)oc2C)n1`, the AC50 under setting [1] was 18.4 µM [rising, partial curve, poor fit]. As for `COc1ccc(CNC(=O)c2cc(-c3cc(C)cc(C)c3O)n[nH]2)cc1`, the AC50 under setting [2] was 11.2 µM [falling, partial curve, poor fit]. As to `Cc1ccc(-c2nc(C#N)c(NCCc3ccccn3)o2)cc1`, under setting [2], the AC50 was 14.1 µM [rising, partial curve, poor fit].

For `O=C(NC(Cc1c[nH]c2ccccc12)C(=O)Nc1ccc(F)cc1)c1cccs1` (stereo unspecified), under setting [2], the AC50 is 18.4 µM [falling, single point]. Turning to `CSc1ccccc1NC(=O)CSc1nnc(COc2ccccc2)o1`, the concentration at half-maximal activity (AC50) under setting [2] was 8.91 µM [falling, partial curve]. In the case of `O=C(NC(=S)NC1CCSC1=O)c1ccccc1` (stereo unspecified), the half-maximal activity concentration (AC50) under setting [1] was 32.6 µM [falling, partial curve, poor fit]. As to `CCc1c(C)sc(NC(=O)c2ccco2)c1C(=O)N1CCCCC1`, the AC50 under setting [2] was 6.51 µM [rising, single point]. Turning to `O=C(CN1C(=O)c2ccccc2S1(=O)=O)N1CCN(Cc2ccc3c(c2)OCO3)CC1`, the AC50 under setting [2] was 0.291 µM [rising, full curve, poor fit]. With `CCc1nnc(NC(=O)c2cccc(S(=O)(=O)N3CC(c4ccccc4)CC3=O)c2)s1` (stereo unspecified), under setting [2], the AC50 was 0.731 µM [falling, full curve, poor fit].

For `O=[N+]([O-])c1ccc(SCCc2ccncc2)cc1`, the AC50 under setting [2] was 12.6 µM [rising, single point] and 7.08 µM [falling, partial curve, poor fit].

For the compound `Cc1cccc(C)c1NC(=O)COC(=O)CN1C(=O)C2CCCCC2C1=O` (stereo unspecified), under setting [2], the AC50 was 14.6 µM [rising, partial curve]. With `CCn1c2ccccc2c2c3ncc4cccn4c3ccc21`, the AC50 under setting [2] was 12.6 µM [rising, partial curve, poor fit]. Consider `CN1CCN(c2ccccc2NC(=O)c2ccc(OCc3ccccc3)cc2)CC1`, for which, under setting [2], the AC50 is 16.4 µM [falling, single point].

Regarding `O=C(O)CCn1c2ccccc2c2nc3ccccc3nc21`, under setting [1], the AC50 is 1 µM [rising, full curve, poor fit]. On to `CC(C)[C@H](NC(=O)N1c2ccccc2NC(=O)[C@@H]1C(C)C)C(=O)N[C@H](Cc1ccccc1)C(=O)O`, for which the AC50 under setting [2] is 17.8 µM [falling, single point]. As to `Cc1c(C(=O)N2CCNCC2)oc2ccccc12`, under setting [2], the AC50 is 22.4 µM [falling, single point]. The same measure, in the same setting: the same measure for `O=C(N/N=C/c1ccc([N+](=O)[O-])cc1)c1cccs1`: 14.1 µM [falling, partial curve, poor fit]; for `CC(=O)Nc1ccc(S(=O)(=O)NC2=NCN(CCOC(=O)c3ccccc3)CN2)cc1`: 0.0651 µM [rising, full curve, poor fit].

As to `COc1ccccc1C(CNc1nc(C(F)(F)F)nc2ccccc12)N(C)C` (stereo unspecified), under setting [2], the half-maximal activity concentration (AC50) was 11.2 µM [falling, partial curve, poor fit]. For the compound `CC(C)(C)OC(=O)NC(Cc1ccccc1)C(=O)O` (stereo unspecified), under setting [2], the AC50 was 15.8 µM [falling, single point]. As to `Cc1ccc(N(C)C(=O)N2CCN(S(=O)(=O)c3ccc(C)cc3)CC2)cc1`, the AC50 under setting [2] is 1.84 µM [falling, single point]. For `Cc1cc(/C=N/Nc2ccc([N+](=O)[O-])cn2)c(C)n1-c1cccc(C(=O)O)c1`, the AC50 under setting [2] was 22.4 µM [rising, single point]. `COc1ccccc1OCC(O)Cn1c(=N)n(CCN2CCCCC2)c2ccccc21` (stereo unspecified): the half-maximal activity concentration (AC50) under setting [2] is 0.731 µM [falling, full curve, poor fit]. Take `O=C(c1ccccc1)c1cccc(NC(=O)C2CC2)c1`: the AC50 under setting [2] was 29.1 µM [rising, single point]. The same measure, in the same setting: the same measure for `COc1ccc(/C=N/Nc2ncc(C(F)(F)F)cc2Cl)cc1OC`: 3.66 µM [rising, full curve, poor fit]; for `COc1ccc(Cc2nc(-c3ccccc3)no2)cc1`: 0.461 µM [rising, full curve, poor fit]; for `COc1ccc(C(=O)CCNc2ccc(F)cc2)cc1`: 2.82 µM [rising, partial curve, poor fit]. Still for that read-out and setting: for `Cc1ccc2nc(SCC(=O)c3c(N)n(C4CC4)c(=O)[nH]c3=O)[nH]c2c1` the value was 16.4 µM [rising, single point]. In the case of `Cc1ccc2nc(Cl)c3nnnn3c2c1`, under setting [2], the AC50 is 2.24 µM [falling, partial curve, poor fit].

Turning to `Cc1ccccc1NC(=O)c1nc2nccc(C)n2n1`, the AC50 under setting [2] was 35.5 µM [falling, single point].

Consider `Cn1cnnc1SCC(=O)Nc1ccc(F)cc1F`, for which, under setting [2], the concentration at half-maximal activity (AC50) is 6.31 µM [falling, full curve, poor fit]. On the same count and under the same terms, the same measure for `COc1ccc2cc(C3(C)NC(=O)N(CC(=O)NCCC4=CCCCC4)C3=O)ccc2c1` (stereo unspecified): 0.092 µM [falling, full curve, poor fit].

Turning to `O=C(Nc1nc(-c2ccccc2)cs1)c1ccco1`, the half-maximal activity concentration (AC50) under setting [2] is 7.94 µM [falling, partial curve]. On to `Cc1ccc(S(=O)(=O)NC(=O)c2cccc(C)c2)cc1`, for which, under setting [2], the AC50 is 5.62 µM [rising, partial curve]. Still for that read-out and setting: the same measure for `O=C1CC(c2ccc(F)cc2)Cc2nc(NCC3CCCO3)ncc21` (stereo unspecified): 4.47 µM [rising, full curve, poor fit]; for `COc1ccc(CNCc2c(O)c(Cl)cc3c(C)c(C)c(=O)oc23)c(OC)c1`: 0.447 µM [rising, full curve, poor fit]. With `COc1cc(C)nc2nc(SCc3ccccc3)nn12`, the AC50 under setting [2] was 1.12 µM [rising, partial curve, poor fit]. Take `O=C(O)c1ccc2nc(-c3cc4cccc(O)c4oc3=O)[nH]c2c1`: under setting [2], the AC50 was 0.1 µM [falling, full curve, poor fit]. Regarding `CC1(C)NC(=O)N(CC(O)COc2ccccc2C(=O)Nc2ccccc2)C1=O` (stereo unspecified), the AC50 is 3.66 µM [falling, single point] under setting [2] and 4.11 µM [rising, partial curve, poor fit] under setting [1]. Consider `O=C(O)c1cccc(Nc2ncnc3c2cnn3-c2ccccc2)c1`, for which the AC50 under setting [2] is 3.66 µM [falling, full curve]. In the case of `CCOC(=O)C1CCN(S(=O)(=O)c2cc(Cl)c(C)cc2OC)CC1`, the AC50 under setting [2] was 4.11 µM [falling, single point] and the AC50 under setting [1] is 3.66 µM [rising, partial curve, poor fit]. For `CC(C)c1nc2oc3ccccc3c(=O)c2c(=O)n1-c1ccccc1`, the AC50 under setting [2] was 0.316 µM [falling, full curve].

For `O=C(CSc1nc2c(sc3ccccc32)c(=O)n1Cc1ccco1)NCC1CCCO1` (stereo unspecified), the AC50 under setting [2] is 32.6 µM [falling, partial curve, poor fit].

For `CC(C)CCn1c(Sc2nc3ccccc3o2)nc2c1c(=O)[nH]c(=O)n2C`, the concentration at half-maximal activity (AC50) under setting [2] was 7.31 µM [falling, partial curve]. Consider `CC(C)COc1ccc(C(=O)OCC(=O)NCc2cccs2)cc1`, for which, under setting [1], the AC50 was 18.4 µM [falling, single point]. As to `CC1CC(C)CN(C(=O)COC(=O)/C=C/c2ccco2)C1` (stereo unspecified), the AC50 under setting [2] was 29.1 µM [rising, single point]. Still for that read-out and setting: the same measure for `Cc1ccccc1NC(=S)N(CCc1c(C)[nH]c2ccc(F)cc12)Cc1cccnc1`: 35.5 µM [falling, single point]. As for `Cn1c2c(c(=O)n(C)c1=O)CN(Cc1ccc3c(c1)OCO3)CN2`, the AC50 under setting [2] is 0.326 µM [falling, full curve, poor fit]. As to `CCOc1cc(/C=C/C(=O)c2ccc(OC)c(CN3CCOCC3)c2)cc(Br)c1O`, under setting [2], the AC50 was 35.5 µM [falling, single point]. As to `CCN(CC)C(=O)[C@H]1C[C@H](CC(=O)NCCCOC)C(=O)N2CCc3c([nH]c4cc(CCC(=O)N(C)C)ccc34)[C@]12C`, the half-maximal activity concentration (AC50) under setting [2] is 29.1 µM [rising, single point]. Same read-out and setting: the same measure for `O=C(CSc1nc2ccccc2c(=O)n1-c1ccc(F)cc1F)Nc1ccc(N2CCOCC2)cc1`: 4.61 µM [falling, single point]; for `O=C(OCc1nnc(-c2ccccc2)o1)c1ccc2ccccc2n1`: 2.06 µM [rising, partial curve, poor fit].

Take `C[C@]12c3[nH]c4ccc(Cl)cc4c3CCN1C(=O)[C@@H](CC(=O)NCC13CC4CC(CC(C4)C1)C3)C[C@@H]2C(=O)N1CCOCC1`: the AC50 under setting [2] is 18.4 µM [falling, single point] and the AC50 under setting [1] was 29.1 µM [rising, single point]. As for `CCOc1ccc2nnc(-c3ccc(Br)cc3)n2n1`, under setting [2], the AC50 is 9.2 µM [rising, partial curve]. For the compound `COc1ccc(C(=O)Nc2ccc3c(c2)C(=O)NC3=O)cc1`, the AC50 under setting [2] is 1 µM [falling, full curve, poor fit]. With `CC1CCN(CCc2nc3cc(NS(=O)(=O)c4ccccc4)ccc3n2C)CC1`, the AC50 under setting [2] was 35.5 µM [falling, single point]. As for `O=C(N/N=C/c1ccncc1)c1cc2ccccc2cc1O`, the AC50 under setting [2] was 17.8 µM [falling, single point].

As to `Cc1nc2sc3c(c2c(=O)[nH]1)CCCC3`, the AC50 under setting [2] is 35.5 µM [rising, single point]. As for `COc1cccc(C(=O)n2cnnc2N)c1OC`, under setting [2], the AC50 is 3.26 µM [rising, partial curve, poor fit]. Regarding `CC(=O)N(CCS(=O)(=O)c1ccc(Cl)cc1)Cc1cccs1`, the AC50 under setting [2] was 6.31 µM [rising, single point]. As to `COc1ccc(/C=N/NC(=O)c2ccc(NC(C)=O)cc2)cc1COc1ccc(F)cc1F`, the concentration at half-maximal activity (AC50) under setting [2] is 4.47 µM [rising, full curve]. In the case of `CCOC(=O)/C=C1\Nc2ccccc2OC1=O`, the AC50 under setting [2] was 13 µM [falling, partial curve]. The same measure, in the same setting: for `CCOCCCNCc1ccc(OCc2ccccc2C)c(OC)c1` the value was 25.1 µM [falling, single point].
